# PubChem BioAssay AID330 (DTP/NCI, 2004)
# The list shows only some results of the screen, not a fair sample: it gathers tests that were run many times, whatever their T/C, doses with no T/C, and many T/C values between a quarter and a half above the control. Other doses and runs of a compound stand elsewhere. T/C gives the treated animals as a percentage of the vehicle group. Some doses have a count of surviving animals in place of a T/C: the source holds a T/C of zero for them, seemingly a mark for toxic or unscored doses. Some doses without a T/C left all or most animals alive at the check, yet need not have been tolerated: the source hardly ever lists a survival T/C far under the control, and the zero likely stands for such cases as well. Survivors were counted at the toxicity check, usually on the fifth day, unless a day is given; later deaths do not show. Schedules are NCI's codes, read here as Q, the interval in days (D) or hours (H), X, the number of doses. For survival time, this PubChem deposit counts one and a half times the control or more as active, and values a quarter to a half above the control carry no call in these data; other NCI protocols may use other cut-offs. Some T/C values are followed by the survivors on the day toxicity was checked, most often the fifth; where none is given, no animal had died by that day.
# System: P388 leukemia ip, CD2F1 mice, survival T/C
# Test: NCI In Vivo Anticancer Drug Screen. Data for tumor model P388 Leukemia (intraperitoneal) in CD2F1 (CDF1) mice
# Settings: T/C endpoint: median survival time, higher T/C = longer survival
compound,measurement,setting,value
O=C1NC(c2cccc3ccccc23)Nc2ccccc21 (stereo not drawn),T/C,"dose: 8.0 mg/kg/injection, schedule: Q03HX024 (ip), vehicle: Klucel (hydroxypropylcellulose) (HPC)",130 % of control
same,T/C,"dose: 16.0 mg/kg/injection, schedule: Q03HX008 (ip), vehicle: Klucel (hydroxypropylcellulose) (HPC)",143 % of control
same,T/C,"dose: 16.0 mg/kg/injection, schedule: Q03HX016 (ip), vehicle: Klucel (hydroxypropylcellulose) (HPC)",144 % of control
same,T/C,"dose: 16.0 mg/kg/injection, schedule: Q03HX024 (ip), vehicle: other",130 % of control
same,T/C,"dose: 16.0 mg/kg/injection, schedule: Q03HX024 (oral), vehicle: other",126 % of control
same,T/C,"dose: 32.0 mg/kg/injection, schedule: Q03HX008 (ip), vehicle: other",125 % of control [9 of 10 alive]
same,T/C,"dose: 32.0 mg/kg/injection, schedule: Q03HX016 (ip), vehicle: other",143 % of control [9 of 10 alive]
same,T/C,"dose: 32.0 mg/kg/injection, schedule: Q03HX016 (oral), vehicle: other",144 % of control
same,survivor count,"dose: 32.0 mg/kg/injection, schedule: Q03HX024 (ip), vehicle: Klucel (hydroxypropylcellulose) (HPC)",10 of 10
same,T/C,"dose: 32.0 mg/kg/injection, schedule: Q03HX024 (ip), vehicle: other",128 % of control [8 of 10 alive]
same,T/C,"dose: 64.0 mg/kg/injection, schedule: Q01DX009 (sc), vehicle: Klucel (hydroxypropylcellulose) (HPC)",130 % of control
same,T/C,"dose: 64.0 mg/kg/injection, schedule: Q01DX009 (sc), vehicle: other",139 % of control
same,survivor count,"dose: 64.0 mg/kg/injection, schedule: Q03HX008 (ip), vehicle: Klucel (hydroxypropylcellulose) (HPC)",6 of 10
same,survivor count,"dose: 64.0 mg/kg/injection, schedule: Q03HX008 (ip), vehicle: other",1 of 10
same,survivor count,"dose: 64.0 mg/kg/injection, schedule: Q03HX008 (oral), vehicle: other",4 of 10
same,survivor count,"dose: 64.0 mg/kg/injection, schedule: Q03HX016 (ip), vehicle: Klucel (hydroxypropylcellulose) (HPC)",6 of 10
same,survivor count,"dose: 64.0 mg/kg/injection, schedule: Q03HX016 (ip), vehicle: other",4 of 10
same,survivor count,"dose: 64.0 mg/kg/injection, schedule: Q03HX016 (oral), vehicle: other",6 of 10
same,survivor count,"dose: 64.0 mg/kg/injection, schedule: Q03HX024 (ip), vehicle: Klucel (hydroxypropylcellulose) (HPC)",4 of 10
same,survivor count,"dose: 64.0 mg/kg/injection, schedule: Q03HX024 (ip), vehicle: other",0 of 10
same,survivor count,"dose: 64.0 mg/kg/injection, schedule: Q03HX024 (oral), vehicle: other",5 of 10
same,survivor count,"dose: 128.0 mg/kg/injection, schedule: Q01DX009 (ip), vehicle: Klucel (hydroxypropylcellulose) (HPC)",10 of 10
same,T/C,"dose: 128.0 mg/kg/injection, schedule: Q01DX009 (ip), vehicle: other",128 % of control
same,T/C,"dose: 128.0 mg/kg/injection, schedule: Q01DX009 (oral), vehicle: other",135 % of control
same,T/C,"dose: 128.0 mg/kg/injection, schedule: Q01DX009 (sc), vehicle: Klucel (hydroxypropylcellulose) (HPC)",126 % of control
same,survivor count,"dose: 128.0 mg/kg/injection, schedule: Q01DX009 (sc), vehicle: other",10 of 10
same,survivor count,"dose: 128.0 mg/kg/injection, schedule: Q03HX008 (ip), vehicle: Klucel (hydroxypropylcellulose) (HPC)",0 of 10
same,survivor count,"dose: 128.0 mg/kg/injection, schedule: Q03HX008 (ip), vehicle: other",0 of 10
same,survivor count,"dose: 128.0 mg/kg/injection, schedule: Q03HX008 (oral), vehicle: other",0 of 10
same,survivor count,"dose: 128.0 mg/kg/injection, schedule: Q03HX016 (ip), vehicle: Klucel (hydroxypropylcellulose) (HPC)",0 of 10
same,survivor count,"dose: 128.0 mg/kg/injection, schedule: Q03HX016 (ip), vehicle: other",0 of 10
same,survivor count,"dose: 128.0 mg/kg/injection, schedule: Q03HX016 (oral), vehicle: other",0 of 10
same,survivor count,"dose: 128.0 mg/kg/injection, schedule: Q03HX024 (ip), vehicle: Klucel (hydroxypropylcellulose) (HPC)",0 of 10
same,survivor count,"dose: 128.0 mg/kg/injection, schedule: Q03HX024 (ip), vehicle: other",0 of 10
same,T/C,"dose: 128.0 mg/kg/injection, schedule: Q03HX024 (oral), vehicle: Klucel (hydroxypropylcellulose) (HPC)",134 % of control
same,survivor count,"dose: 128.0 mg/kg/injection, schedule: Q03HX024 (oral), vehicle: other",0 of 10
same,T/C,"dose: 128.0 mg/kg/injection, schedule: Q04DX003 (ip), vehicle: Klucel (hydroxypropylcellulose) (HPC)",142 % of control
same,T/C,"dose: 128.0 mg/kg/injection, schedule: Q08DX002 (ip), vehicle: Klucel (hydroxypropylcellulose) (HPC)",129 % of control
same,T/C,"dose: 128.0 mg/kg/injection, schedule: Q08DX002 (oral), vehicle: other",127 % of control
same,T/C,"dose: 256.0 mg/kg/injection, schedule: Q01DX001 (ip), vehicle: Klucel (hydroxypropylcellulose) (HPC)",129 % of control
same,T/C,"dose: 256.0 mg/kg/injection, schedule: Q01DX001 (oral), vehicle: other",135 % of control
same,survivor count,"dose: 256.0 mg/kg/injection, schedule: Q01DX009 (ip), vehicle: Klucel (hydroxypropylcellulose) (HPC)",4 of 10
same,survivor count,"dose: 256.0 mg/kg/injection, schedule: Q01DX009 (ip), vehicle: other",8 of 10
same,survivor count,"dose: 256.0 mg/kg/injection, schedule: Q01DX009 (oral), vehicle: other",3 of 10
same,survivor count,"dose: 256.0 mg/kg/injection, schedule: Q01DX009 (sc), vehicle: other",7 of 10
same,T/C,"dose: 256.0 mg/kg/injection, schedule: Q04DX003 (sc), vehicle: other",139 % of control
same,T/C,"dose: 256.0 mg/kg/injection, schedule: Q08DX002 (ip), vehicle: Klucel (hydroxypropylcellulose) (HPC)",135 % of control
same,T/C,"dose: 256.0 mg/kg/injection, schedule: Q08DX002 (oral), vehicle: other",132 % of control [8 of 10 alive]
same,T/C,"dose: 512.0 mg/kg/injection, schedule: Q01DX001 (ip), vehicle: Klucel (hydroxypropylcellulose) (HPC)",144 % of control
same,survivor count,"dose: 512.0 mg/kg/injection, schedule: Q01DX001 (ip), vehicle: other",5 of 10
same,survivor count,"dose: 512.0 mg/kg/injection, schedule: Q01DX001 (oral), vehicle: other",3 of 10
same,survivor count,"dose: 512.0 mg/kg/injection, schedule: Q04DX003 (ip), vehicle: Klucel (hydroxypropylcellulose) (HPC)",9 of 10
same,survivor count,"dose: 512.0 mg/kg/injection, schedule: Q04DX003 (ip), vehicle: other",5 of 10
same,survivor count,"dose: 512.0 mg/kg/injection, schedule: Q04DX003 (oral), vehicle: other",2 of 10
same,T/C,"dose: 512.0 mg/kg/injection, schedule: Q04DX003 (sc), vehicle: Klucel (hydroxypropylcellulose) (HPC)",135 % of control
same,survivor count,"dose: 512.0 mg/kg/injection, schedule: Q04DX003 (sc), vehicle: other",6 of 10
same,survivor count,"dose: 512.0 mg/kg/injection, schedule: Q08DX002 (ip), vehicle: other",3 of 10
same,survivor count,"dose: 512.0 mg/kg/injection, schedule: Q08DX002 (oral), vehicle: other",5 of 10
same,survivor count,"dose: 1024.0 mg/kg/injection, schedule: Q01DX001 (ip), vehicle: Klucel (hydroxypropylcellulose) (HPC)",4 of 10
same,survivor count,"dose: 1024.0 mg/kg/injection, schedule: Q01DX001 (ip), vehicle: other",0 of 10
same,survivor count,"dose: 1024.0 mg/kg/injection, schedule: Q01DX001 (oral), vehicle: other",1 of 10
same,survivor count,"dose: 1024.0 mg/kg/injection, schedule: Q04DX003 (ip), vehicle: Klucel (hydroxypropylcellulose) (HPC)",2 of 10
same,survivor count,"dose: 1024.0 mg/kg/injection, schedule: Q04DX003 (ip), vehicle: other",0 of 10
same,survivor count,"dose: 1024.0 mg/kg/injection, schedule: Q04DX003 (oral), vehicle: other",1 of 10
same,survivor count,"dose: 1024.0 mg/kg/injection, schedule: Q04DX003 (sc), vehicle: other",0 of 10
same,survivor count,"dose: 1024.0 mg/kg/injection, schedule: Q08DX002 (ip), vehicle: Klucel (hydroxypropylcellulose) (HPC)",1 of 10
same,survivor count,"dose: 1024.0 mg/kg/injection, schedule: Q08DX002 (ip), vehicle: other",0 of 10
same,survivor count,"dose: 1024.0 mg/kg/injection, schedule: Q08DX002 (oral), vehicle: other",1 of 10
